# PubChem BioAssay AID1053208, Peter MacCallum Cancer Centre, 2014
# Assay: 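Find knock-downs that sensitise mouse osteosarcoma cells to doxorubicin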 (primary screen)
# Cell system: mouse osteosarcoma cells, early-passage culture from an engineered mouse model of fibroblastic bone tumour
# Reagent: siRNA pool against mouse genes, 40 nM
# Duration: about 120 h (48 h before drug, then 72 h with drug)
# Treatment: doxorubicin 100 nM for 72 h, roughly 30-40% inhibitory dose
# Read-out: 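Luminescent ATP signal taken as viability with or without 100 nM doxorubicin for 72 h; mean of two wells set against non-targeting siRNA and turned into robust z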
# Direction: viability z-score with doxorubicin: higher = more viable cells under doxorubicin; viability z-score without drug: higher = more viable cells with knock-down alone
# Hit rule: 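Called active if knock-down leaves viability unchanged without drug (z within -2 to 2) but lowers it with doxorubicin (z at or under -2)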
# Here is an unselected part of about 17,000 reagents. In the full data, 788 (4.7%) were called active. 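Calls rest on z-score classes alone; an extra cut-off of viability at most 70% of control was not applied to them.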 Entries without a mark were called inactive. The numbers tell different reagents against one gene apart. Not all columns of the deposit are shown. No sequences are given here.
Target gene,pool no.,combined z-score class,viability z-score with doxorubicin,viability z-score without drug
Rabac1,1,no change with or without drug,0.34,0.34
Atp1b2,1,no change with or without drug,0.67,0.17
Fkbp11,1,no change with or without drug,0,1.01
Crnkl1,1,low cell count with and without drug,-4.27,-3.88
Spata16,1,no change with or without drug,0,0.17
Pogk,1,no change with or without drug,0.9,0.34
Rab1a,1,no change with or without drug,-0.9,-1.18
Spen,1,no change with or without drug,-1.24,0.51
Plscr2,1,low cell count with doxorubicin only (active),-2.59,-0.51
Cbln1,1,no change with or without drug,-0.56,0
Ooep,1,no change with or without drug,0.22,0.51
Kcnj8,1,no change with or without drug,0.45,0.67
Fdft1,1,no change with or without drug,-0.67,-0.17
Acss2,1,no change with or without drug,0.67,-1.69
Rnf144b,1,no change with or without drug,-0.67,-0.51
Or2l13,1,no change with or without drug,-0.67,0
Hgf,1,no change with or without drug,0,0.67
Ppp2r5b,1,no change with or without drug,1.57,-0.17
Stk3,1,no change with or without drug,-0.9,-1.52
Nptx1,1,no change with or without drug,0.67,0
Mettl6,1,no change with or without drug,1.12,1.85
Fyn,1,no change with or without drug,0.34,-0.17
Gzmc,1,no change with or without drug,0.22,1.52
Phgdh,1,no change with or without drug,-0.45,-1.01
Crhr2,1,no change with or without drug,1.35,1.18
Rfng,1,no change with or without drug,1.46,-0.51
Ppp4c,1,low cell count with and without drug,-2.02,-2.87
Plcl2,1,no change with or without drug,-0.67,0.17
Pdgfb,1,no change with or without drug,-0.67,-0.67
Pdia5,1,no change with or without drug,0.22,1.18
Zfp28,1,no change with or without drug,0.34,1.35
Zfp28,2,no change with or without drug,-0.45,-0.51
Hhat,1,no change with or without drug,1.12,0.17
Dkk4,1,no change with or without drug,0.11,1.52
Satb1,1,no change with or without drug,1.46,1.01
Nphp4,1,no change with or without drug,0.45,0
Or5aq6,1,high cell count without drug only,-0.22,2.53
Tab3,1,no change with or without drug,0.79,0.84
Mug1,1,no change with or without drug,-0.9,0.51
Glt1d1,1,high cell count without drug only,1.46,2.19
S100a5,1,no change with or without drug,-1.57,0.17
Lypd4,1,no change with or without drug,-1.35,-1.85
Vmn1r235,1,no change with or without drug,-0.45,-0.84
Zc3hav1,1,no change with or without drug,0.22,0.17
Cd79a,1,low cell count with doxorubicin only (active),-2.7,-0.67
Alkbh7,1,no change with or without drug,-1.46,1.18
Inca1,1,no change with or without drug,0.34,0.17
Stt3a,1,no change with or without drug,-0.67,0
Aicda,1,no change with or without drug,-1.57,-0.84
Ibtk,1,no change with or without drug,-0.45,-1.52
